PubChem BioAssay AID1259267 | Sanger Institute, 2017
This is an unselected part of 794 reagents tested. 9 of all reagents (1.1%) count as active. 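Viability capped at 1; calls reflect loss of viability from knock-down alone, not synergy with drugs.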 Unmarked entries are inactive. Not all columns of the deposit are shown. Not given: the amount of reagent, the time to read-out.

- Screen: 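Essential and drug-synergistic knock-downs in GP5D bowel cancer cells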 (primary screen)
- Cells: human GP5D colorectal cancer cells
- Reagent: siRNA pool against human genes
- Treatment: anchor drugs at low dose: BYL719 1 µM, cetuximab 5 µg/ml, trametinib 10 nM, or DMSO vehicle
- Detection: 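Mean replicate viability versus non-targeting pool, given as knock-down-alone robust z-score, DMSO fraction, and synergy with low-dose BYL719, cetuximab or trametinib (1 µM, 5 µg/ml, 10 nM)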
- Reading the numbers: robust z-score, knock-down alone: higher = more viable cells
- Rule for the call: 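Active (essential alone) if knock-down without drug gives robust z-score under -3; drug synergy does not count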
- Meaning of the calls: active = essential alone; inactive = not essential

CHUK (GeneID 1147)
- robust z-score, knock-down alone: 0.125

MAP3K21 (GeneID 84451)
- robust z-score, knock-down alone: -0.627

SMC1A (GeneID 8243)
- robust z-score, knock-down alone: -2.13

MAPK6 (GeneID 5597)
- robust z-score, knock-down alone: 0.207

DCLK2 (GeneID 166614)
- robust z-score, knock-down alone: 0.356

POMK (GeneID 84197)
- robust z-score, knock-down alone: 0.817

A stretch from the list above, for reference:
SMC1A (GeneID 8243)
- robust z-score, knock-down alone: -2.13

MAPK6 (GeneID 5597)
- robust z-score, knock-down alone: 0.207

Additional entries follow:
CERT1 (GeneID 10087)
- robust z-score, knock-down alone: -0.167

PDK2 (GeneID 5164)
- robust z-score, knock-down alone: 0.778

ATR (GeneID 545)
- robust z-score, knock-down alone: 0.817

CILK1 (GeneID 22858)
- robust z-score, knock-down alone: 0.817

CDK16 (GeneID 5127)
- robust z-score, knock-down alone: 0.449

CEP290 (GeneID 80184)
- robust z-score, knock-down alone: 0.817

CDK5R1 (GeneID 8851)
- robust z-score, knock-down alone: -0.714

SRPK2 (GeneID 6733)
- robust z-score, knock-down alone: 0.817

PIK3R4 (GeneID 30849)
- robust z-score, knock-down alone: -2.08

THNSL1 (GeneID 79896)
- robust z-score, knock-down alone: 0.817

AGK (GeneID 55750)
- robust z-score, knock-down alone: 0.817

PRPS1L1 (GeneID 221823)
- robust z-score, knock-down alone: -0.561

PFKM (GeneID 5213)
- robust z-score, knock-down alone: -0.402
